These results are taken from article PMC4702141 (Scientific Reports, 2016).

Sequences of proteins named here, by UniProt entry; tags and fusion partners are left off. Residues count along the entry.
UniProt P08476, residues 311-426: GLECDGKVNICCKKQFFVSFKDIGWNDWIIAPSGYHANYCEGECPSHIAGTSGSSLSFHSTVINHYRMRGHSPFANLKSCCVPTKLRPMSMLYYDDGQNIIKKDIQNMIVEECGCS

These are yes or no findings as the source states them, for the method shown. Sequences can lack the tags named with a protein.

Sequences and labels used below:
B1: human BMP15 (ligand, UniProt O95972 268-392)
chain: QADGISAEVTASSSKHSGPENNQCSLHPFQISFRQLGWDHWIIAPPFYTPNYCKGTCLRVLRDGLNSPNHAIIQNLINQLVDQSVPRPSCVPYKYVPISVLMIEANGSILYKEYEGMIAESCTCR
B2: human GDF11 (ligand, UniProt O95390 299-407)
chain: NLGLDCDEHSSESRCCRYPLTVDFEAFGWDWIIAPKRYKANYCSGQCEYMFMQKYPHTHLVQQANPRGSAGPCCTPTKMSPINMLYFNDKQQIIYGKIPGMVVDRCGCS
B3: human BMP9 (ligand, UniProt Q9UK05 320-429)
chain: SAGAGSHCQKTSLRVNFEDIGWDSWIIAPKEYEAYECKGGCFFPLADDVTPTKHAIVQTLVHLKFPTKVGKACCVPTKLSPISVLYKDDMGVPTLKYHYEGMSVAECGCR
B4: human GDF9 (ligand, UniProt O60383 320-454)
chain: GQETVSSELKKPLGPASFNLSEYFRQFLLPQNECELHDFRLSFSQLKWDNWIVAPHRYNPRYCKGDCPRAVGHRYGSPVHTMVQNIIYEKLDSSVPRPSCVPAKYSPLSVLTIEPDGSIAYKEYEDMIATKCTCR

This test has as its target T1, recombinant BMPRIB-Fc (mouse, UniProt P36898 14-126).
T1 construct: BMPRIB (ALK6), mouse, extracellular domain; cDNA fragment NM_007560.3, 4-378 bp, from FANTOM cDNA clones (RIKEN); also called ALK6; source: 293F cells, transfected, purified from culture supernatant (Protein A columns)
T1 sequence (looked up): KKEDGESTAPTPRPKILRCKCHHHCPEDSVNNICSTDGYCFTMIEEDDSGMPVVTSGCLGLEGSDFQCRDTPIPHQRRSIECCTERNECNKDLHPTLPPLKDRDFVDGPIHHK
Nature of the test: SPR; BMPRIA-Fc or BMPRIB-Fc captured with an anti-human Fc IgG capture kit; ligands injected at 25 °C, 30 μL/min; HBS-EP (+) running buffer; single-cycle kinetics, 1:1 binding model, Biacore T100; average of 2 or 3 independent analyses; both purified.
On to “human Activin A (from UniProt P08476 311-426) (ligand)”, for which the binding entry is listed as “no binding”.
As for B1, the entry is “no binding”; as for B2, “no binding”; as for B3, “no binding”.
In the case of B4, the binding entry is reported as “no binding”.
